Measurements reported in PubChem BioAssay AID493014 (National Center for Advancing Translational Sciences (NCATS), 2011).
Where “and” joins values, the source holds several entries; their conditions need not be identical. Equal values may be shown once. The list shows a part of the results. The main result of the screen is listed elsewhere. These columns were measured beside it and carry no call. The list favours compounds with an active or inconclusive main result. Potencies come from curve fits of mixed quality, noted in brackets.

Test: qHTS Assay to Find Inhibitors of Chronic Active B-Cell Receptor Signaling
Conditions: ABC-DLBCL IkBa-CBG/CBR reporter, luminescence ratio (green luciferase fused to IkBa over red control in TMD8 lymphoma cells), 4 h
How it was run: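 Compounds up to 46 uM were incubated four hours with TMD8 cells whose green CBG68 luciferase is fused to IkappaBalpha; red CBR luminescence normalised the signal, and concentration-effect curves were fitted to fusion, red and ratio data.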

[1] = measured here: CBR red luminescence, cell number
[2] = measured here: IkBa-CBG green luminescence

Structure (SMILES) | AC50 [1] | AC50 [2]
CCn1c(N)nc2ccccc21 | 28.2 µM [falling, single point] | 
O=c1oc(-c2ccc([N+](=O)[O-])cc2)nc2ccccc12 | 1.41 µM [falling, full curve] | 
Cc1c(Cl)cccc1Nc1nc(N)nc(CN2CCCCCC2)n1 | 29.1 µM [falling, single point] | 
Cc1ccc2c(c1)/C(=C/c1ccccc1F)C(=O)N2 | 35.5 µM [falling, single point] | 
O=C(Cn1cc([N+](=O)[O-])cn1)Nc1ccn(Cc2c(F)c(F)cc(F)c2F)n1 | 18.4 µM [rising, single point] | 
CCOC(=O)Cn1cnc2c(nnn2-c2cccc(OC)c2)c1=O | 17.8 µM [rising, partial curve, poor fit] | 
Cc1cccn2cc(-c3ccc(S(=O)(=O)N4CCOCC4)cc3)nc12 | 6.31 µM [rising, full curve] | 
O=C(Nc1ccc(N2CCOCC2)cc1)C1CCCCN1S(=O)(=O)c1ccccc1 (centres undefined) | 8.91 µM [rising, partial curve, poor fit] | 
CCc1nnc2n1N=C(c1ccccc1)CS2 | 35.5 µM [falling, single point] | 
Cn1c(=NC(=O)CCl)sc2ccccc21 | 25.1 µM [falling, single point] | 
COc1ccc(S(=O)(=O)Nc2ccc(S(=O)(=O)N(C)C)cc2)cc1[N+](=O)[O-] | 6.51 µM [falling, single point] | 
O=C(CN1CCOCC1)NNc1c2ccccc2nc2ccccc12 |  | 35.5 µM [rising, partial curve, poor fit]
Cc1ccccc1NC(=O)c1cccc(NC(=O)c2ccco2)c1 | 17.8 µM [falling, single point] | 
Cc1nc(C)c(C(=O)N/N=C/c2cc(Br)ccc2O)s1 | 7.08 µM [falling, partial curve, poor fit] | 
Cn1ccc(C(=O)NC(=S)Nc2ccc([N+](=O)[O-])cc2O)n1 | 3.55 µM [falling, full curve] | 
Cc1ccc(O)c(N/C=C/C(=O)c2ccc(F)cc2)c1 | 15.8 µM [falling, single point] | 
CC(C)c1ccc(/C=N/NC(=O)c2ccccn2)cc1 | 7.94 µM [falling, partial curve] | 
CC1=CC(=O)C(C(C)C)=C/C1=N/OS(=O)(=O)c1ccccc1 | 20 µM [falling, single point] | 20 µM [rising, single point]
O=[N+]([O-])c1cc(/C=N/Nc2nc(N3CCCCC3)nc(N3CCCCC3)n2)ccc1O | 0.82 µM [falling, full curve, poor fit] | 
CC(=O)N(C)c1ccc(NC(=O)C(Sc2ccccc2)c2ccccc2)cc1 (centres undefined) | 35.5 µM [rising, single point] | 
CSc1ccc(/C=C/C(=O)OCC(=O)NC2CCS(=O)(=O)C2)cc1 (centres undefined) | 18.4 µM [rising, single point] | 

An excerpt from above in order of length of the SMILES, low to high.
Structure (SMILES) | AC50 [1] | AC50 [2]
CC(=O)N(C)c1ccc(NC(=O)C(Sc2ccccc2)c2ccccc2)cc1 (centres undefined) | 35.5 µM [rising, single point] | 
O=C(Nc1ccc(N2CCOCC2)cc1)C1CCCCN1S(=O)(=O)c1ccccc1 (centres undefined) | 8.91 µM [rising, partial curve, poor fit] | 
O=[N+]([O-])c1cc(/C=N/Nc2nc(N3CCCCC3)nc(N3CCCCC3)n2)ccc1O | 0.82 µM [falling, full curve, poor fit] | 

Next part.

Structure (SMILES) | AC50 [1] | AC50 [2]
COc1nc(NCCN2CCOCC2)nc(Nc2ccc([N+](=O)[O-])cc2)n1 | 32.6 µM [falling, single point] | 
Cc1ccc(C2=NN(CC(=O)NCCc3ccccc3)C(=O)CC2)cc1 | 1.26 µM [rising, full curve, poor fit] | 
CC(CCc1ccccc1)NC(=O)C(=O)c1c[nH]c2ccccc12 (centres undefined) | 5.01 µM [falling, partial curve] | 
Cc1c(Cl)cccc1NC(=S)N=Nc1c(O)n(CN2CCOCC2)c2ccccc12 |  | 5.8 µM [falling, full curve]
CC(C)(C)NCCOCCOc1ccccc1-c1ccccc1 | 16.4 µM [falling, single point] | 
CCCOC(=O)C1C2C=CC(C2)C1C(=O)OCC(=O)c1ccccc1 (centres undefined) | 32.6 µM [rising, single point] | 
O=C(NC(=S)Nc1ccc(CN2CCOCC2)cc1)c1ccc2c(c1)OCCO2 | 6.31 µM [falling, full curve, poor fit] | 
COCCNC(=O)Cn1nc(-c2ccccc2)c2ccccc2c1=O | 35.5 µM [rising, single point] and 20 µM [rising, partial curve, poor fit] | 
CCOC(=O)c1cnn(-c2ccc(C(F)(F)F)cn2)c1N | 5.17 µM [rising, full curve] | 
CCc1cccc2c(C(=O)CSc3nncn3-c3ccccc3OC)c[nH]c12 | 11.6 µM [falling, partial curve, poor fit] | 
O=C(NCCCn1ccnc1)c1cc(-c2cccc(O)c2)on1 | 12.6 µM [falling, partial curve, poor fit] | 
Nc1nc(N)c(N=O)c(OCC2CCCCC2)n1 | 12.6 µM [rising, partial curve] | 10 µM [falling, partial curve]
O=C(Nc1ccc2c(c1)CCCN2C(=O)c1ccco1)c1cc([N+](=O)[O-])ccc1Cl | 18.4 µM [falling, partial curve] | 
O=C(O)CCCNc1c(C(=O)Nc2ccc(Cl)cc2)cc([N+](=O)[O-])cc1[N+](=O)[O-] | 15.8 µM [falling, partial curve, poor fit] | 
COc1cc(S(=O)(=O)Nc2ccccc2C(=O)N2CCCCC2)ccc1NC(C)=O | 29.1 µM [rising, single point] | 
O=C(N/N=C/C=C/c1ccc2c(c1)OCO2)c1ccc([N+](=O)[O-])cc1 | 0.0146 µM [rising, full curve, poor fit] | 
Cc1cccc(N(C(=O)c2nsc(Cl)c2Cl)C(C(=O)NC2CCCC2)c2ccc(O)cc2)c1C (centres undefined) | 10.3 µM [falling, partial curve] | 
O=C(O)CN1CCN(Cc2ccc(F)cc2)C1=O | 0.708 µM [rising, partial curve, poor fit] | 
CCCOc1ccc(-c2csc(N)n2)cc1[N+](=O)[O-] | 8.2 µM [rising, partial curve] | 29.1 µM [falling, single point]
CCOC(=O)N1CCC2(CC1)C(C#N)=C(N)Oc1n[nH]c(C)c12 | 16.4 µM [falling, partial curve, poor fit] | 
